Results on one molecule are retold here after PMC5490199.

Sequences of proteins named here, by UniProt entry; tags and fusion partners are left off. A change or cut given only in a name is not applied to a line headed by its entry.
UniProt Q8T9L5: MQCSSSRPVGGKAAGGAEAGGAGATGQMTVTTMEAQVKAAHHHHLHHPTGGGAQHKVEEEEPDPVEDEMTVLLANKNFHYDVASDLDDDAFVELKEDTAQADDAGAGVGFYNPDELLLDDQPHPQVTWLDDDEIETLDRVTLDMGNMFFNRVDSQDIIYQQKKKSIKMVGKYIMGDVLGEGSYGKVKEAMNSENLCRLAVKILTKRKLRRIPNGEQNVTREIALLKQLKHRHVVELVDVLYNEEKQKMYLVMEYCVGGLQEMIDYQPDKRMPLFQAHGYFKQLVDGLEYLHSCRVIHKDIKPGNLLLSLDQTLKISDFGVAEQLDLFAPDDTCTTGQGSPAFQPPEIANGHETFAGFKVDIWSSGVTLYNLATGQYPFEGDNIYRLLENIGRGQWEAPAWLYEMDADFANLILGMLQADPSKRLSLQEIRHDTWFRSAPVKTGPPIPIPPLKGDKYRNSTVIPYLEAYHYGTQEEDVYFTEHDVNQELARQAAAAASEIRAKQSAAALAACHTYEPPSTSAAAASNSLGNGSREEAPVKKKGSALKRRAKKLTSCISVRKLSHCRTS

Results are given in words; binding and its absence hold for the method and conditions named. In cells and extracts the contact can be indirect. Binding calls can cover weak binding; strength is not graded here. Tags and fused reporters may be left off the sequences shown.

Assay [1] addresses GFP-LKB1 (wild-type Drosophila LKB1) (Drosophila) (UniProt Q8T9L5). The assay can be described thus: co-IP; GFP-Trap (ChromoTek) on GFP-LKB1; Drosophila embryonic lysates that ubiquitously expressed the proteins using arm::GAL4.
Assay [2] concerns the target GFP-LKB1 ΔLB C564A (membrane-binding-deficient Drosophila LKB1) (Drosophila). Described as above.

B1: HA-tagged DmSTRADα (Stlk) (protein, UniProt P83098 1-346)
chain: MMCSNNISDYKLLEILKNGMIGTVYKAEDINNKCLAVKKVSMDQPMEKLTLLFNEVLTVRRLQHRNINTIVSCFLYKQYVYLTYKFMCFGNCEVLLKNVYTSGFPEVAIALILKDVLSALTYIHSEHYVHGSVRAKHILLSPRKAVLSNFSYCQSFISQGEKKTFIFGSTVGIEKELYWTAPEVLYQNLSGYTEKIDIYSIGITCCEMANGFQPFKDTELTYMYIEKVRGSLQVLLDKNSLLENQGSLSLEHTNKRIARDVIVNKSFSENFHQFVELCLNKNPLSRWAASKLMTHSFLKQCRNTSLLDQLKDLGQKMSKFKRNEHEIFSDARGSHNPQPNDTIWKF
As for B1, the binding entry in assay [1] and in assay [2] was “binds” in each case.
